In PubChem BioAssay (NCATS):
The other results are listed elsewhere or left out. These are further read-outs of the screen, such as a control signal, another cell line or another target. No call is given for them. Compounds called inactive in the main read-out are mostly missing here. Words in brackets tell the shape of the fitted curve; partial curves, single points and poor fits give uncertain potencies.

experiment: S16 Schwann cell PMP22 intronic element beta-lactamase assay (AID 624044); details: S16 rat Schwann cells, PMP22 element beta-lactamase FRET, 24 h; measured here: 530 nm viability channel
How it was run: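 Beta-lactamase reporter under a PMP22 intronic regulatory element in stable S16 rat Schwann cells; 24 h compound exposure. 460 nm blue signal normalized between DMSO (0%) and potassium clavulanate, with 535 nm FRET tracking viability; curves classed by r2 and response.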

SMILES | AC50
CCN1/C(=C/C=C/C=C/c2sc3ccccc3[n+]2CC)Sc2ccccc21 | 4.47 µM [falling, partial curve]
C=C(CC[C@@H](C)[C@H]1CCC2[C@]1(C)CC[C@]13C[C@@]14CCC(OC(=O)/C=C/c1ccc(O)c(OC)c1)C(C)(C)[C@@H]4CC[C@@]23C)C(C)C (stereo not given in full) | 2 µM [falling, full curve]
CC(C)C[C@@H](NC(=O)[C@@H](Cc1ccccc1)NC(=O)c1cnccn1)B(O)O | 0.0224 µM [rising, full curve]
Cc1cccc(Nc2ccncc2S(=O)(=O)NC(=O)NC(C)C)c1 | 0.00355 µM [falling, full curve]
OC[C@H](S)CS | 7.94 µM [rising, partial curve]
CCOC(=O)c1c[nH]c2cc(OCC(C)C)c(OCC(C)C)cc2c1=O | 1.41 µM [falling, single point]
O=C1C(=O)c2ncccc2-c2cccnc21 | 25.1 µM [rising, partial curve]
CCCC(=O)OC[C@@H](OC(=O)CCC)[C@@H](OC(=O)CCC)[C@H](Cn1c2nc(=O)[nH]c(=O)c-2nc2cc(C)c(C)cc21)OC(=O)CCC | 15.8 µM [rising, partial curve]
O=C(O)CCC/C=C\C[C@@H]1[C@@H](/C=C/[C@@H](O)COc2cccc(Cl)c2)[C@H](O)C[C@@H]1O | 28.2 µM [falling, single point]
O=c1[nH]c(=O)c2[nH]c(=O)[nH]c2[nH]1 | 2.24 µM [falling, full curve]

Individual results from the entries so far:
C=C(CC[C@@H](C)[C@H]1CCC2[C@]1(C)CC[C@]13C[C@@]14CCC(OC(=O)/C=C/c1ccc(O)c(OC)c1)C(C)(C)[C@@H]4CC[C@@]23C)C(C)C (stereo not given in full) | AC50: 2 µM [falling, full curve]
O=C1C(=O)c2ncccc2-c2cccnc21 | AC50: 25.1 µM [rising, partial curve]
